Data from US8828940B2, “Method of treating an ischemia-reperfusion injury-related disorder by administering GPCR ligands” (priority 2006, dated 2014).
At least one peptide structure holds a part that was inferred or is arguable (an end, a ring closure or a residue). No end group written: not given here.

By UniProt entry, the sequences of proteins in these tests, tags left out. Where a name states a change or a piece, a line headed by the entry shows the natural chain unless it says otherwise.
UniProt Q96LB2: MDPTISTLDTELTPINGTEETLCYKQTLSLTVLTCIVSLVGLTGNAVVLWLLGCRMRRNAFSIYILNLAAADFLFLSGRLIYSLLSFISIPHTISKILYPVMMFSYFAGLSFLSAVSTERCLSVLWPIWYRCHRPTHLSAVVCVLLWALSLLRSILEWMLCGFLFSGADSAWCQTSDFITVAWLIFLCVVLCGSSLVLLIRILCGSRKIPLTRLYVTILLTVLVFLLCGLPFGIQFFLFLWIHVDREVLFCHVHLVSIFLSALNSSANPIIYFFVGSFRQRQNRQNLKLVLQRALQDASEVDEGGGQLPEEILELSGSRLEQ

How the values were obtained:
[1] = system: cardiac remodeling induced by Isoproterenol in Wistar rats; experiment: Cardiac remodeling induced by Isoproterenol; format: in vivo, rat; details: 1 ug/hour/Kg by osmotic minipump; partial data, 3 out of 6 animals of each group
Description: The effect of the peptides […] (SEQ ID NO:10), […]-dimer ([…]) (SEQ ID NO9), P33_V (SEQ ID NO:7), P33-dimer (P33_D) (SEQ ID NO:6) on cardiac remodeling, was tested by determining their effect on heart hypertrophy and fibrosis (deposition of collagen I, III, and fibronectin) induced by Isoproterenol. Losartan (an antagonist of the known angiotensin II receptor, AT1, Kucharewicz et al., 2002; Hypertension, (40): 774-779) was used as positive control. The negative control group was treated with vehicle only. Additional control groups included rats not-treated with isoproterenol which were treated with the peptides, with Losartan or with the vehicle. The analysis included determination of the left ventricle mass and morphometry. […] Immunofluorescence-labeling and quantitative confocal microscopy was used to investigate the distribution and quantity of collagen types I, III and fibronectin present in the left ventricles. […] Optimal confocal settings (aperture, gain and laser power) were determined at the beginning of each imaging session and then held constant during the analysis of all the samples. […] For quantitative analysis of collagens I, III, and fibronectin, the ImageTool 2.0 image analysis program was used (see “[…] University of Texas Health Science Center at San Antonio website) to measure the fluorescence intensity in images randomly selected. […]

[2] = system: aortic rings from Wistar rat; experiment: Vasorelaxant activity in isolated aortic rings pre-contracted with phenylephrine; details: 100 μM L-NAME (NO synthase inhibitor)
[3] = target: T1, MrgX2 (Homo sapiens, UniProt Q96LB1); experiment: Calcium flux in MrgX2-transfected CHO-K1 cells; format: cell-based; details: for calcium flux relative to the negative control: CHO-K1 co-transfected with MrgX2 and Gα16, 1 μM, about 20-90 seconds; for eliciting calcium flux compared with cortistatin-14: summary statement, MrgX2-expressing cells
T1 construct: expressed in transfected cells; host or cells: CHO-K1 (ATCC-CCL-61), transient co-transfection
T1 sequence (Q96LB1 1-330): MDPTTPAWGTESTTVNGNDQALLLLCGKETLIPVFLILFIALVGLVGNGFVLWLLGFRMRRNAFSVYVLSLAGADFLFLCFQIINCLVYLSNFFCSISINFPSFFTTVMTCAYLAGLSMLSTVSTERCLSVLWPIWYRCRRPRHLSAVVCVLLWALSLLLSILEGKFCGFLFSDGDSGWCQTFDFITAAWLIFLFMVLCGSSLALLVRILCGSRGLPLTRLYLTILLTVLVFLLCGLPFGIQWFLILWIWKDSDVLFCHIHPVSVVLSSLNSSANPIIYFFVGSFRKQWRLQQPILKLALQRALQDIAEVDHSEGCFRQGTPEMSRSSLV
Description: (§1) The assay was carried out in CHO cells were transiently transfected with the GPCR of choice, by utilizing the promiscuous Gα16 to divert signaling to the Gq pathway, thus enabling readout of GPCR activation by testing for Calcium flux as described by Liu et al 2003 (Biomol Screen 8, 39-49).
(§2) All the peptides thus obtained were tested for their ability to change calcium flux in CHO-K1 cells (ATCC-CCL-61) transiently co-transfected with an expression vector containing the GPCR of choice and expression vector containing the Gα16 encoding cDNA. Expression constructs containing cDNA clones for MrgX1, MrgX2, Mas or FPRL1 were commercially obtained in one of the following expression vectors: pcDNA3.1, pCMV6, or MO2.
(§3) Transient transfections were performed using CHO-K1 cells as host cells. Cells (12 million) were plated into T75 flasks on the day preceding transfection. Cells were transfected with the appropriate GPCR expression vector and with a vector expressing Gα16 using a lipid-based reagent, MTI, according to the manufacturer's recommendation. Cells were transfected for 5 hours, then re-plated into 96-well dishes (60,000 cells per well) and grown overnight.
(§4) On the day of the experiment, cells were loaded with Fluo-4-NW (Invitrogen) according to the manufacturer's recommendation. Plates were loaded into a FlexStation™ (Molecular Devices) plate reader and fluorescence was monitored. Seventeen seconds following initiation of reading, cells were stimulated with the indicated agonist/compound at final concentration of 1 μM. Each 96 well plate contained cells transfected with one GPCR expression vector and each of the examined peptides was tested in triplicate.
(§5) We defined a hit as a peptide which elicited a clear and distinct increase in intracellular calcium that is clearly visible and statistically significant upon examination of the calcium trace for at least two repeats. The criterion for statistical significance was a p-value lower than 0.001 in a t-test comparing the levels of calcium before and after peptide addition.
The ability of Peptides to change calcium flux was examined in CHO-K1 cells co-transfected with MrgX2 and Gα16.

[4] = target: T2, Mas receptor (Homo sapiens, UniProt P04201); experiment: Calcium flux in Mas-transfected CHO-K1 cells; format: cell-based; details: for calcium flux relative to the negative control: CHO-K1 co-transfected with Mas and Gα16, 1 μM
T2 construct: expressed in transfected cells; host or cells: CHO-K1 (ATCC-CCL-61), transient co-transfection
T2 sequence (P04201 1-325): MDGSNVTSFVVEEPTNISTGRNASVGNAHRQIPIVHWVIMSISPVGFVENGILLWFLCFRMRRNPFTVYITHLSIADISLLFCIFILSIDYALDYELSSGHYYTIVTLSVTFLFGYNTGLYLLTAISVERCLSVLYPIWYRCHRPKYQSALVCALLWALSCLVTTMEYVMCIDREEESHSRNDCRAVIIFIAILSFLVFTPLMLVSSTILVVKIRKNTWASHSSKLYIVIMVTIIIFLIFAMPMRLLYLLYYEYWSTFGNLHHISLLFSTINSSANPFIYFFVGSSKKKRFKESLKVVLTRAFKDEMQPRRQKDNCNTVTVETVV
Description: as §1, §2, §3, §4
We defined a hit as a peptide which elicited a clear and distinct increase in intracellular calcium that is clearly visible and statistically significant upon examination of the calcium trace for at least two repeats. […]
Based on dose response experiments, EC50 best fit values were calculated by non-linear regression of sigmoidal dose-response curves, using Prism version 4 (GraphPad Software Inc., San Diego, Calif.). […]

[5] = target: T3, FPRL1 (Homo sapiens, UniProt P25090); experiment: Calcium flux in FPRL1-transfected CHO-K1 cells; format: cell-based; design: expressed in transfected cells; host or cells: CHO-K1 (ATCC-CCL-61), transient co-transfection; details: for calcium flux relative to the negative control: CHO-K1 co-transfected with FPRL1 and Gα16, 1 μM, about 20-90 seconds
T3 sequence (P25090 1-351): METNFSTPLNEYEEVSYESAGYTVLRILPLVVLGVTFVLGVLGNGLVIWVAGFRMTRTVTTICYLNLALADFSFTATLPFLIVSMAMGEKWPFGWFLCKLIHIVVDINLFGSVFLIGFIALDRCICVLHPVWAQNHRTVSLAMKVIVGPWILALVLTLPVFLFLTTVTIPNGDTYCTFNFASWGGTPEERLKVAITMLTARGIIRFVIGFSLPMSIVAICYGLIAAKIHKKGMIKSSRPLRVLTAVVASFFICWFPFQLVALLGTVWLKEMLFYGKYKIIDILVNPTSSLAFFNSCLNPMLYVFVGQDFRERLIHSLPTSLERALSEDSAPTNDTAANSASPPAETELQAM
Description: as §1, §2, §3
as §4, with “Seventeen seconds following initiation of reading, cells were stimulated with the indicated agonist/compound at final concentration of 1 μM.” left out
as §5
The ability of Peptides to change calcium flux was examined in CHO-K1 cells co-transfected with FPRL1 and Gα16. […]

[6] = target: T4, MrgX1 (Homo sapiens, UniProt Q96LB2); experiment: Calcium flux in MrgX1-transfected CHO-K1 cells; format: cell-based
T4 construct: expressed in transfected cells; host or cells: CHO-K1 (ATCC-CCL-61), transient co-transfection

FLGYSIYLNRKRRGDPAFKRRLRD [Peptide P61_S]
heart hypertrophy as measured by deposition of Fibronectin, Collagen I and Collagen III [1]: effective in reducing the heart hypertrophy
vasodilator effect in the presence of L-NAME [2]: abolished the vasodilator effect
calcium flux relative to the negative control [3]: increased calcium flux
eliciting calcium flux compared with cortistatin-14 [3]: superior to cortistatin-14
calcium flux relative to the negative control [4]: induced calcium flux

GIGSVWHWKHRVATRFTLPRFLQ [Peptide P60_S]
calcium flux relative to the negative control [5]: increased calcium flux
dose response activation of MrgX1 ([6]; 1, 3, 10, 30, 100, 300, 1000 and 3000 nM): dose dependent activation
calcium flux relative to the negative control ([6]; CHO-K1 co-transfected with MrgX1 and Gα16, 1 μM, 20-90 seconds): increased calcium flux
eliciting calcium flux compared with BAM22 ([6]; summary statement, MrgX1 expressing cells): superior to BAM22
calcium flux relative to the negative control [3]: increased calcium flux
eliciting calcium flux compared with cortistatin-14 [3]: superior to cortistatin-14

SMVHRWSRAVLFPAAHRP [Peptide P33_V, SMVHRWSRAVLFPAAHRP]
ability to induce calcium flux (P33 family) ([5]; 0.1, 1, 10, 100, 1000, 10000 nM): similarly potent
calcium flux relative to the negative control [5]: increased calcium flux
heart hypertrophy as measured by deposition of Fibronectin, Collagen I and Collagen III [1]: inconsistent
ability to induce calcium flux, relative potency (P33 family) ([4]; 0.1, 1, 10, 100, 1000 and 10000 nM): equally potent
calcium flux relative to the negative control [4]: increased calcium flux
